Assay results published in PubChem BioAssay AID2685 (National Center for Advancing Translational Sciences (NCATS), 2010).
The other results are listed elsewhere or left out. Further columns of the screen follow, without active or inactive calls. The list favours compounds with an active or inconclusive main result. Words in brackets tell the shape of the fitted curve; partial curves, single points and poor fits give uncertain potencies.

Experiment: qHTS Assay for Lipid Storage Modulators in Drosophila S3 Cells;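 as to cell number change: cells counted by Cell Tracker Red CMTPX staining in the red channel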
Settings: BODIPY lipid droplet fluorescence, 18-24 h; for cell number change: measured here: cell count max response, cells fed with added oleic acid
How it was run: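 Drosophila S3 cells loaded with oleic acid (400 uM, as added) and compounds at several concentrations; lipid droplets imaged by 488-nm laser-scanning cytometry, 500–530 nm intensity and object ratio to cell channel. Percent activity normalized to 20 uM Triacsin C.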

[1] = measured here: cell number channel AC50, cells fed with added oleic acid
[2] = measured here: lipid fluorescence (Fed channel) AC50, cells fed with added oleic acid

With `COc1ccc(-c2[nH]ncc2-c2ccc3c(c2)OCCO3)c(O)c1` the cell number change was -42.1%, the AC50 [1] was 29.1 µM [falling, single point] and the AC50 [2] was 0.00517 µM [rising, full curve, poor fit].
For `CSc1nnc(C)c(=O)n1COC(=O)COc1ccccc1`, the AC50 [1] was 0.651 µM [rising, partial curve, poor fit].
For `CCn1ncc(Br)c1C(=O)Nc1ccc(C(=O)OC(C)C)cc1`, the cell number change was -0.679% and the AC50 [2] was 13 µM [rising, partial curve].
For `CCN(CC(=O)NC1CCS(=O)(=O)C1)c1nc(-c2cccnc2)nc2ccccc12` (centres undefined), the cell number change was -20.3% and the AC50 [2] was 4.61 µM [falling, full curve, poor fit].
In the case of `CCCCOc1ncnc2c1[nH]c1ccccc12`, the cell number change is reported as -34.2%, the AC50 [1] is reported as 6.51 µM [falling, partial curve] and the AC50 [2] is reported as 0.366 µM [rising, partial curve].
With `COCCn1c(=O)[nH]c2cc(C(=O)Nc3nnc(C)s3)ccc21` the cell number change was 3.97% and the AC50 [2] was 0.82 µM [rising, full curve, poor fit].
In the case of `COc1ccccc1N/C(=N/S(=O)(=O)c1ccc(Cl)cc1)c1ccccc1`, the cell number change is reported as 76%, the AC50 [1] is reported as 3.66 µM [rising, partial curve] and the AC50 [2] is reported as 3.26 µM [rising, partial curve].
With `CN(CC(=O)Nc1ccc(F)cc1)C(=O)CSc1ncccn1` the cell number change was -4.42%, the AC50 [1] was 4.61 µM [falling, single point] and the AC50 [2] was 8.2 µM [falling, partial curve].
For `COc1ccc(-c2cnc(SCC(=O)Nc3cc(C)on3)n2Cc2ccco2)cc1`, the cell number change was -1.2% and the AC50 [2] was 11.6 µM [rising, single point].
With `CCn1c(SCC(=O)Nc2ccccc2)nc2nc3c(cc2c1=O)COC(C)(C)C3` the AC50 [1] was 0.461 µM [rising, partial curve, poor fit].
With `COc1ccc(NC(=O)CSc2nnc(Cc3cccn3C)n2-c2ccc(F)cc2)cc1` the cell number change was 5.82%.
With `Cc1cnc(C(=O)Nc2ccc(S(=O)(=O)N(C(C)C)C(C)C)cc2)cn1` the cell number change was 12.4% and the AC50 [2] was 20.6 µM [falling, partial curve].
In the case of `O=C(NNC(=O)c1ccc(-c2ccccc2)cc1)Nc1ccccc1F`, the cell number change is reported as 30.2% and the AC50 [1] is reported as 0.259 µM [rising, full curve, poor fit].
With `CN1CC(=O)N(CC(=O)Nc2ccc(N3CCOCC3)cc2)C1=O` the cell number change was 13.8% and the AC50 [2] was 0.0326 µM [rising, full curve, poor fit].
In the case of `Cc1[nH]c2ccccc2c1N=Nc1c(C)n(C)n(-c2ccccc2)c1=O`, the cell number change is reported as -58.7% and the AC50 [2] is reported as 20.6 µM [falling, single point].
For `COCCCNC(=O)c1ccc2c3c(onc13)-c1ccccc1C2=O`, the cell number change was -68%, the AC50 [1] was 29.1 µM [falling, single point] and the AC50 [2] was 16.4 µM [falling, single point].
For `N#C/C(=C\c1cc(Cl)cc(Cl)c1O)C(=O)NC1CCCCC1`, the cell number change was 147%, the AC50 [1] was 16.4 µM [rising, partial curve] and the AC50 [2] was 20.6 µM [rising, partial curve].
In the case of `CC(C)NC(=O)CSc1ccccc1C(=O)NCc1ccc2c(c1)OCO2`, the AC50 [1] is reported as 2.31 µM [rising, partial curve] and the AC50 [2] is reported as 0.116 µM [rising, full curve, poor fit].
In the case of `CC(NC(=O)c1cc(-c2ccncc2)nc2ccc(Cl)cc12)C1CCCO1` (centres undefined), the cell number change is reported as -22.3% and the AC50 [2] is reported as 29.1 µM [falling, single point].
In the case of `N#C/C(=N\Nc1cccc(C(F)(F)F)c1)C(=O)c1ccsc1`, the cell number change is reported as -35.7%, the AC50 [1] is reported as 13 µM [falling, partial curve] and the AC50 [2] is reported as 14.6 µM [falling, partial curve].
For `COc1ccc(-c2[nH]ncc2CN(Cc2nccn2C)C(C)C)c(F)c1`, the cell number change was -9.35% and the AC50 [2] was 4.11 µM [falling, single point].
`COC(=O)CSc1nnc(-c2ccccc2O)n1-c1ccc(C)cc1` showed a cell number change of -1.94%.
In the case of `Cc1cc(C)cc(C(=O)NCC(=O)NNC(=O)CSc2ccccc2F)c1`, the cell number change is reported as 0.208% and the AC50 [2] is reported as 6.51 µM [falling, single point].
With `COC(=O)COC(=O)c1ccccc1NC(=O)c1ccccc1` the cell number change was -33.3%, the AC50 [1] was 3.26 µM [rising, partial curve] and the AC50 [2] was 6.51 µM [rising, partial curve].
`COc1ccccc1CN(Cc1cc2cc(C)ccc2[nH]c1=O)Cc1nnnn1CC1CCCO1` (centres undefined) showed a cell number change of -17.5%.
With `CCCc1cc2c(=O)c(-c3ccc4c(c3)OCCO4)c(C)oc2cc1OS(C)(=O)=O` the AC50 [2] was 0.461 µM [rising, single point].
For `Cc1nc(-c2ccccc2)sc1C(=O)/C=C/c1ccccc1`, the cell number change was -31.2% and the AC50 [1] was 1.46 µM [falling, partial curve, poor fit].
With `Cc1sc2ncnc(NCc3cccs3)c2c1C` the cell number change was 3.61%.
With `Cc1cccc(NC(=O)CN2CCCN(S(=O)(=O)c3ccc(Br)s3)CC2)c1` the cell number change was -8.65%.
For `COc1ccc(OC)c2sc(N3CCCCC3)nc12`, the AC50 [1] was 0.231 µM [falling, full curve, poor fit].
With `CC(C)(c1ccccc1)c1ccc(OCCN)cc1` the cell number change was 69.7% and the AC50 [1] was 14.6 µM [rising, partial curve, poor fit].
For `CCOc1ccccc1CNS(=O)(=O)c1ccc2[nH]c(=O)sc2c1`, the cell number change was -18.6% and the AC50 [2] was 29.1 µM [falling, single point].
For `Cc1ccccc1NC(=O)COC(=O)COc1ccc2c(c1)CCC2`, the cell number change was 25%.
With `COc1ccccc1NC(=O)CSc1ncnc2c1oc1ccccc12` the cell number change was -3.4% and the AC50 [2] was 0.731 µM [rising, full curve, poor fit].
For `CCN(c1ccccc1)S(=O)(=O)c1ccc(OCc2c(C)noc2C)cc1`, the cell number change was 51.4%, the AC50 [1] was 10.3 µM [rising, partial curve, poor fit] and the AC50 [2] was 0.231 µM [rising, full curve, poor fit].
In the case of `CCCn1c2c(c(O)c(C(=O)Nc3ccccc3)c1=O)CCCC2`, the cell number change is reported as -42.7%, the AC50 [1] is reported as 29.1 µM [falling, single point] and the AC50 [2] is reported as 20.6 µM [rising, single point].
In the case of `CN1C(=O)[C@H]2[C@@H](C3CC3)N3C(=O)CN(CCO)C(=O)[C@@]3(Cc3ccccc3)[C@H]2C1=O`, the cell number change is reported as 27.5% and the AC50 [2] is reported as 0.146 µM [rising, full curve, poor fit].
